From US5723747A, “Wax esters in transformed plants” (Calgene, Inc., priority 1994, dated 1998)
At least one structure is not confirmed: it was looked up by name or label, or the drawing left a doubt.

Target: T1, jojoba wax synthase (Simmondsia chinensis, UniProt Q9XGY6)
T1 construct: added to a microsomal membrane fraction having wax synthase activity; from tissue; host or cells: jojoba microsomal membrane fraction
T1 sequence (Q9XGY6 1-352): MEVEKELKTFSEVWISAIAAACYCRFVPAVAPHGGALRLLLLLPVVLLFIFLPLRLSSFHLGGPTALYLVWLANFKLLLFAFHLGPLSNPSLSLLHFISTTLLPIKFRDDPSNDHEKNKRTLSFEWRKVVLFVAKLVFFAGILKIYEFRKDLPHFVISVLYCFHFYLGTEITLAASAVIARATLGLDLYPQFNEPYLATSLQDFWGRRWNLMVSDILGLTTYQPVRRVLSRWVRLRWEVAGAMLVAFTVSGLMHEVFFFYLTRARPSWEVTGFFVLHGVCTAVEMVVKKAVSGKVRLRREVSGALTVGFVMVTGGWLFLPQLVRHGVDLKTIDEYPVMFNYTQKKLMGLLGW
Test: Wax synthase assay, microsomal membrane fraction
Assay type: biochemical
Method: Wax synthase activity is measured by incubation of 40 μM [1-^14 C]acyl-CoA (usually palmitoyl-CoA, sp. act. 5.1-5.6 mCi/mmol) and 200 μM oleyl alcohol with the sample to be assayed in a total volume of 0.25 ml. The incubation mixture also contains 20% w/v glycerol, 1 mM DTT, 0.5M NaCl and is buffered with 25 mM HEPES (4-[2-hydroxyethyl]-1-piperazineethane-sulfonic acid).
A substrate mixture is prepared in a glass vial, with oleyl alcohol being added immediately before use, and is added to samples.
Acyl-CoA and alcohol substrates having varying carbon chain lengths and degrees of unsaturation were added to a microsomal membrane fraction having wax synthase activity to determine the range of substrates recognized by the jojoba wax synthase. Wax synthase activity was measured as described in Example 1, with acyl specificity measured using 80 μM of acyl-CoA substrate and 100 μM of radiolabeled oleyl alcohol. Alcohol specificity was measured using 100 μM of alcohol substrate and 40 μM of radiolabeled eicosenoyl-CoA.

With `CCCCCCCC/C=C\CCCCCCCCCCCCCC(=O)SCCNC(=O)CCNC(=O)[C@H](O)C(C)(C)COP(=O)(O)OP(=O)(O)OC[C@H]1O[C@@H](n2cnc3c(N)ncnc32)[C@H](O)[C@@H]1OP(=O)(O)O` [24:1, tetracosenoyl-CoA] the “Wax synthase Activity, Acyl Group” value (80 μM acyl-CoA substrate, 100 μM radiolabeled oleyl alcohol) was 35 pmol/min and the “Wax synthase Activity, Alcohol Group” value (100 μM alcohol substrate, 40 μM radiolabeled eicosenoyl-CoA) was 24 pmol/min.
